# The list shows a part of the results.
# B1: SspB (Streptococcus gordonii), P16952 (protein)
# chain: MKNKKEVYGFRKSKVAKTLCGAVLGTALIAFADKAVFADEVTETTSTSTVEVATTGNPATNLPEAQGEMSQVAKESQAKAGSKESALPVEVSSADLDKAVADAKSAGVKVVQDETKDKGTATTATDNAQKQDEIKSDYAKQAEEIKTTTEAYKKEVAAHQAETDKINAENKAADDKYQKDLKSHQEEVEKINTANATAKAEYEAKLAQYQKDLATVKKANEDSQQDYQNKLSAYQTELARVQKANAEAKEAYEKAVKENTAKNEALKVENEAIKQRNETAKATYEAAMKQYEADLAAIKKANEDNDADYQAKLAAYQTELARVQKANAEAKEAYDKAVKENTAKNTAIQAENEAIKQRNETAKATYDAAVKKYEADLAAVKQANATNEADYQAKLAAYQTELARVQKANADAKATYEKAVEDNKAKNAAIKAENEEIKQRNAVAKTDYEAKLAKYEADLAKYKKEFAAYTAALAEAESKKKQDGYLSEPRSQSLNFKSEPNAIRTIDSSVHQYGQQELDALVKSWGISPTNPDRKKSRAYSYFNAINSNNTYAKLVLEKDKPVDVTYTGLKNSSFNGKKISKVVYTYTLKETGFNDGTKMTMFASSDPTVTAWYNDYFTSTNINVKVKFYDEEGQLMNLTGGLVNFSSLNRGNGSGAIDKDAIESVRNFNGRYIPISGSSIKIHENNSAYADSSNAEKSLGARWNTSEWDTTSSPNNWYGAIVGEITQSEISFNMASSKSGNIWFAFNSNINAIGVPTKPVAPTAPTQPMYETEKPLEPAPVAPSYENEPTPPVKTPDQPEPSKPEEPTYETEKPLEPAPVAPSYENEPTPPVKTPDQPEPSKPEEPNYETEKPLEPAPVAPSYENEPTPPVKIPDQPEPSKPEEPTYDPLPTPPLAPTPKQLPTPPVVPTVHFHYSSLLAQPQINKEIKNEDGVDIDRTLVAKQSIVKFELKTEALTAGRPKTTSFVLVDPLPTGYKFDLDATKAASTGFDTTYDEASHTVTFKATDETLATYNADLTKPVETLHPTVVGRVLNDGATYTNNFTLTVNDAYGIKSNVVRVTTPGKPNDPDNPNNNYIKPTKVNKNKEGLNIDGKEVLAGSTNYYELTWDLDQYKGDKSSKEAIQNGFYYVDDYPEEALDVRPDLVKVADEKGNQVSGVSVQQYDSLEAAPKKVQDLLKKANITVKGAFQLFSADNPEEFYKQYVATGTSLVITDPMTVKSEFGKTGGKYENKAYQIDFGNGYATEVVVNNVPKITPKKDVTVSLDPTSENLDGQTVQLYQTFNYRLIGGLIPQNHSEELEDYSFVDDYDQAGDQYTGNYKTFSSLNLTMKDGSVIKAGTDLTSQTTAETDATNGIVTVRFKEDFLQKISLDSPFQAETYLQMRRIAIGTFENTYVNTVNKVAYASNTVRTTTPIPRTPDKPTPIPTPKPKDPDKPETPKEPKVPSPKVEDPSAPIPVSVGKELTTLPKTGTNDATYMPYLGLAALVGFLGLGLAKRKED
# Legend:
# Test in all cases: glycan array binding signal (z-score within array); higher = stronger binding
# Conditions in all cases: glycan notation: IUPAC condensed, linker removed
# [1] = target: Neu5Ac(a2-6)Gal(b1-4)GlcNAc(b1-2)Man(a1-3)Man(b1-4)GlcNAc(b1-4)GlcNAc
# Procedure, shortened: (§1)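 The binding signal is a Z-score computed within each array. Data were drawn from 3228 arrays in the Consortium for Functional Glycomics database, restricted to those with a known protein sequence. Scores were averaged over arrays of the same protein sequence at different concentrations or buffers, and over linkers, and negative values can be taken as non-binding.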
# [2] = target: Neu5Ac(a2-6)Gal(b1-4)GlcNAc(b1-2)Man(a1-3)[Gal(b1-4)GlcNAc(b1-2)Man(a1-6)]Man(b1-4)GlcNAc(b1-4)GlcNAc
# Procedure, shortened: as §1
# [3] = target: Neu5Ac(a2-6)Gal(b1-4)GlcNAc(b1-2)Man(a1-3)[GlcNAc(b1-2)Man(a1-6)]Man(b1-4)GlcNAc(b1-4)GlcNAc
# Procedure, shortened: as §1
# [4] = target: Neu5Ac(a2-6)Gal(b1-4)GlcNAc(b1-2)Man(a1-3)[GlcNAc(b1-2)Man(b1-4)GlcNAc(b1-2)Man(a1-6)]Man(b1-4)GlcNAc(b1-4)GlcNAc
# Procedure, shortened: as §1
# [5] = target: Neu5Ac(a2-6)Gal(b1-4)GlcNAc(b1-2)Man(a1-3)[Man(a1-6)]Man(b1-4)GlcNAc(b1-4)GlcNAc
# Procedure, shortened: as §1
# [6] = target: Neu5Ac(a2-6)Gal(b1-4)GlcNAc(b1-2)Man(a1-3)[Neu5Ac(a2-6)Gal(b1-4)GlcNAc(b1-2)Man(a1-6)]Man(b1-4)GlcNAc(b1-4)GlcNAc
# Procedure, shortened: as §1
# [7] = target: Neu5Ac(a2-6)Gal(b1-4)GlcNAc(b1-2)Man(a1-6)Man(b1-4)GlcNAc(b1-4)GlcNAc
# Procedure, shortened: as §1
# [8] = target: Neu5Ac(a2-6)Gal(b1-4)GlcNAc(b1-2)Man(a1-6)[Gal(b1-4)GlcNAc(b1-2)Man(a1-3)]Man(b1-4)GlcNAc(b1-4)GlcNAc
# Procedure, shortened: as §1
# [9] = target: Neu5Ac(a2-6)Gal(b1-4)GlcNAc(b1-2)Man(a1-6)[GlcNAc(b1-2)Man(a1-3)]Man(b1-4)GlcNAc(b1-4)GlcNAc
# Procedure, shortened: as §1
# [10] = target: Neu5Ac(a2-6)Gal(b1-4)GlcNAc(b1-2)Man(a1-6)[Man(a1-3)]Man(b1-4)GlcNAc(b1-4)GlcNAc
# Procedure, shortened: as §1
# [11] = target: Neu5Ac(a2-6)Gal(b1-4)GlcNAc(b1-3)Gal(b1-3)GlcNAc
# Procedure, shortened: as §1
# [12] = target: Neu5Ac(a2-6)Gal(b1-4)GlcNAc(b1-3)Gal(b1-4)GlcNAc
# Procedure, shortened: as §1
# [13] = target: Neu5Ac(a2-6)Gal(b1-4)GlcNAc(b1-3)Gal(b1-4)GlcNAc(b1-3)Gal(b1-4)GlcNAc
# Procedure, shortened: as §1
# [14] = target: Neu5Ac(a2-6)Gal(b1-4)GlcNAc(b1-3)Gal(b1-4)[Fuc(a1-3)]GlcNAc(b1-3)Gal(b1-4)[Fuc(a1-3)]GlcNAc
# Procedure, shortened: as §1
# [15] = target: Neu5Ac(a2-6)Gal(b1-4)GlcNAc(b1-3)GalNAc
# Procedure, shortened: as §1
# [16] = target: Neu5Ac(a2-6)Gal(b1-4)GlcNAc6S
# Procedure, shortened: as §1
# Neu5Ac(a2-6)GalNAc = target: Neu5Ac(a2-6)GalNAc
# Procedure, shortened: as §1
# [17] = target: Neu5Ac(a2-6)GalNAc(b1-4)GlcNAc
# Procedure, shortened: as §1
# [18] = target: Neu5Ac(a2-6)GlcNAc(b1-4)GlcNAc
# Procedure, shortened: as §1
# [19] = target: Neu5Ac(a2-6)GlcNAc(b1-4)GlcNAc(b1-4)GlcNAc
# Procedure, shortened: as §1
# Neu5Ac(a2-8)Neu5Ac = target: Neu5Ac(a2-8)Neu5Ac
# Procedure, shortened: as §1
# [20] = target: Neu5Ac(a2-8)Neu5Ac(a2-3)Gal(b1-4)Glc
# Procedure, shortened: as §1
# [21] = target: Neu5Ac(a2-8)Neu5Ac(a2-3)[GalNAc(b1-4)]Gal(b1-4)Glc
# Procedure, shortened: as §1
# [22] = target: Neu5Ac(a2-8)Neu5Ac(a2-8)Neu5Ac
# Procedure, shortened: as §1
# [23] = target: Neu5Ac(a2-8)Neu5Ac(a2-8)Neu5Ac(a2-3)Gal(b1-4)Glc
# Procedure, shortened: as §1
# [24] = target: Neu5Ac(a2-8)Neu5Ac(a2-8)Neu5Ac(a2-3)[GalNAc(b1-4)]Gal(b1-4)Glc
# Procedure, shortened: as §1
# [25] = target: Neu5Ac(a2-8)Neu5Ac(a2-8)Neu5Ac(a2-8)Neu5Ac(a2-3)[GalNAc(b1-4)]Gal(b1-4)Glc
# Procedure, shortened: as §1
# [26] = target: Neu5Ac(b2-6)Gal(b1-4)GlcNAc
# Procedure, shortened: as §1
# Neu5Ac(b2-6)GalNAc = target: Neu5Ac(b2-6)GalNAc
# Procedure, shortened: as §1
# [27] = target: Neu5Ac9Ac(a2-3)Gal(b1-3)GlcNAc
# Procedure, shortened: as §1
# [28] = target: Neu5Ac9Ac(a2-3)Gal(b1-4)GlcNAc
# Procedure, shortened: as §1
# [29] = target: Neu5Ac9Ac(a2-6)Gal(b1-4)GlcNAc
# Procedure, shortened: as §1
# [30] = target: Neu5Gc(a2-3)Gal(b1-3)GlcNAc
# Procedure, shortened: as §1
# [31] = target: Neu5Gc(a2-3)Gal(b1-3)[Fuc(a1-4)]GlcNAc
# Procedure, shortened: as §1
# Neu5Gc(a2-3)Gal(b1-4)Glc = target: Neu5Gc(a2-3)Gal(b1-4)Glc
# Procedure, shortened: as §1
# [32] = target: Neu5Gc(a2-3)Gal(b1-4)GlcNAc
# Procedure, shortened: as §1
# [33] = target: Neu5Gc(a2-3)Gal(b1-4)[Fuc(a1-3)]GlcNAc
# Procedure, shortened: as §1
# [34] = target: Neu5Gc(a2-6)Gal(b1-4)GlcNAc
# Procedure, shortened: as §1
# Neu5Gc(a2-6)GalNAc = target: Neu5Gc(a2-6)GalNAc
# Procedure, shortened: as §1
# [35] = target: Neu5Gc(b2-6)Gal(b1-4)GlcNAc
# Procedure, shortened: as §1
binder,measurement,setting,value
B1,glycan array binding signal (z-score),[1],0.633
same,glycan array binding signal (z-score),[2],3.2
same,glycan array binding signal (z-score),[3],0.149
same,glycan array binding signal (z-score),[4],0.542
same,glycan array binding signal (z-score),[5],1.36
same,glycan array binding signal (z-score),[6],0.104
same,glycan array binding signal (z-score),[7],1.36
same,glycan array binding signal (z-score),[8],-0.88
same,glycan array binding signal (z-score),[9],0.081
same,glycan array binding signal (z-score),[10],-0.773
same,glycan array binding signal (z-score),[11],-0.01
same,glycan array binding signal (z-score),[12],0.136
same,glycan array binding signal (z-score),[13],-0.931
same,glycan array binding signal (z-score),[14],-1.2
same,glycan array binding signal (z-score),[15],1.63
same,glycan array binding signal (z-score),[16],0.701
same,glycan array binding signal (z-score),Neu5Ac(a2-6)GalNAc,-0.019
same,glycan array binding signal (z-score),[17],-0.856
same,glycan array binding signal (z-score),[18],-1.62
same,glycan array binding signal (z-score),[19],0.146
same,glycan array binding signal (z-score),Neu5Ac(a2-8)Neu5Ac,0.392
same,glycan array binding signal (z-score),[20],2
same,glycan array binding signal (z-score),[21],-0.488
same,glycan array binding signal (z-score),[22],-0.247
same,glycan array binding signal (z-score),[23],2.25
same,glycan array binding signal (z-score),[24],2.4
same,glycan array binding signal (z-score),[25],0.061
same,glycan array binding signal (z-score),[26],-0.067
same,glycan array binding signal (z-score),Neu5Ac(b2-6)GalNAc,-0.187
same,glycan array binding signal (z-score),[27],0.606
same,glycan array binding signal (z-score),[28],0.771
same,glycan array binding signal (z-score),[29],-0.919
same,glycan array binding signal (z-score),[30],0.179
same,glycan array binding signal (z-score),[31],1.09
same,glycan array binding signal (z-score),Neu5Gc(a2-3)Gal(b1-4)Glc,1.03
same,glycan array binding signal (z-score),[32],-0.643
same,glycan array binding signal (z-score),[33],-1.54
same,glycan array binding signal (z-score),[34],-1.37
same,glycan array binding signal (z-score),Neu5Gc(a2-6)GalNAc,-0.438
same,glycan array binding signal (z-score),[35],-0.303

# Nothing new here: entries from further up.
binder,measurement,setting,value
B1,glycan array binding signal (z-score),[29],-0.919
same,glycan array binding signal (z-score),[30],0.179

# Source: the supplement of paper PMC8728848
